Test results as given in patent US12707888B2, “Asymmetric donor-acceptor molecular dyes” (THE UNIVERSITY OF NORTH CAROLINA AT CHARLOTTE, priority 2019, dated 2026).

Test system: HEK 293T cells
Experiment: Cellular localization time-lapse imaging vs CellMask red
Type: cell-based, Human
Conditions: for decrease of plasma membrane fluorescence intensity normalized to CellMask red / TTz internalization (normalized intensity of intracellular membranes): 500 nM dye

In the case of CCCCN(CCCC)c1ccc(-c2nc3sc(-c4ccncc4)nc3s2)cc1 [Bu2N-TTz-Py, 2-(N,N-dibutyl-4-aminophenyl)-5-(4-pyridyl) thiazolo[5,4-d]thiazole], the “decrease of plasma membrane fluorescence intensity normalized to CellMask red” value (after 50 min) is reported as 2.5%, the “decrease of plasma membrane fluorescence intensity normalized to CellMask red” value (after 110 min) is reported as 26% and the “TTz internalization (normalized intensity of intracellular membranes)” value (over 50 min) is reported as under 1%. The “TTz internalization (normalized intensity of intracellular membranes)” value (over 130 min) was 5% and the “dye internalization (time lapsed images)” value (over 130 min, compared to CellMask Red) was “minimal dye internalization”.
